Data as given in PubChem BioAssay AID504808 (Drosophila RNAi Screening Center, 2011).
Assay: 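Chromatin factors that keep E2F targets switched off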 (primary screen). Cells: Drosophila S2 cells. Knock-down reagent: long dsRNA against Drosophila genes. Measurement: 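Firefly luciferase driven by E2F sites, normalised to Renilla luciferase on the same minimal promoter, measured by plate reader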. Reading the numbers: E2F firefly: higher = more E2F reporter activity; Renilla normaliser: higher = more normaliser reporter signal. Hit rule: 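Called active if the normalised E2F reporter went up by over 50%; the cutoff is arbitrary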.
The deposit covers about 21,000 reagents; shown is a random part of those with a known target gene and a result. Over the whole deposit, 18 (0.084%) got an active call. 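Raw counts without plate normalisation, one of two replicates; the ratio scores behind the calls were not deposited.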 Reagent sequences are not shown. Not given: the amount of reagent, the time to read-out.

The first 2 entries, ahead of the listing:
schlank (GeneID 50392) [DRSC18102]: E2F firefly, rep 1 = 52478; Renilla normaliser, rep 1 = 3707; outcome = inactive
schlank (GeneID 50392) [DRSC18313]: E2F firefly, rep 1 = 96401; Renilla normaliser, rep 1 = 5576; outcome = inactive

The list itself, from the start:
schlank (GeneID 50392) [DRSC18102]: E2F firefly, rep 1 = 52478; Renilla normaliser, rep 1 = 3707; outcome = inactive
schlank (GeneID 50392) [DRSC18313]: E2F firefly, rep 1 = 96401; Renilla normaliser, rep 1 = 5576; outcome = inactive
CG13895 (GeneID 38087) [DRSC08365]: E2F firefly, rep 1 = 1.17e5; Renilla normaliser, rep 1 = 4943; outcome = inactive
vex (GeneID 32033) [DRSC19481]: E2F firefly, rep 1 = 1.22e5; Renilla normaliser, rep 1 = 6302; outcome = inactive
vex (GeneID 32033) [DRSC19651]: E2F firefly, rep 1 = 1.34e5; Renilla normaliser, rep 1 = 6446; outcome = inactive
mRpL13 (GeneID 35145) [DRSC02076]: E2F firefly, rep 1 = 1.05e5; Renilla normaliser, rep 1 = 4626; outcome = inactive
rn (GeneID 40879) [DRSC12500]: E2F firefly, rep 1 = 75862; Renilla normaliser, rep 1 = 4858; outcome = inactive
rn (GeneID 40879) [DRSC12543]: E2F firefly, rep 1 = 1.46e5; Renilla normaliser, rep 1 = 6710; outcome = inactive
rn (GeneID 40879) [DRSC12544]: E2F firefly, rep 1 = 1.27e5; Renilla normaliser, rep 1 = 7754; outcome = inactive
rn (GeneID 40879) [DRSC12546]: E2F firefly, rep 1 = 1.29e5; Renilla normaliser, rep 1 = 6139; outcome = inactive
CG31140 (GeneID 42836) [DRSC13649]: E2F firefly, rep 1 = 86899; Renilla normaliser, rep 1 = 2477; outcome = inactive
CG31140 (GeneID 42836) [DRSC14603]: E2F firefly, rep 1 = 75160; Renilla normaliser, rep 1 = 3215; outcome = inactive
CG31140 (GeneID 42836) [DRSC15904]: E2F firefly, rep 1 = 1.24e5; Renilla normaliser, rep 1 = 6257; outcome = inactive
